# Most values lie at the floor of the assay. Slopes are relative: functional sequences can read slightly below zero.
# System: Saccharomyces cerevisiae PS128 hsf1 delta, HSF1(1-493) fusion
# Assay: growth estimate (transactivation domain function in HSF1 fusion, heat-shock survival) (a.u. (slope of normalised read count over time)); higher = stronger growth at 37°C, i.e. more transactivation activity
# Conditions: library: random library
row,Substance,growth estimate
1,SVTARRALVCLPFSGQGKTK,-0.25
2,SVTCELCLIIRGPLRVFN,-0.245
3,SVTG,< -0.25
4,SVTGASS,< -0.25
5,SVTRGTHVVISQVARMACRR,< -0.25
6,SVVAHTRDTEWNGLPAHVKQ,< -0.25
7,SVVAMVPFGLWVNNSPGARR,< -0.25
8,SVVPFQYQ,< -0.25
9,SVVPRQRLISIWAPVLCVFV,< -0.25
10,SVVRSTQYIRTTLRNYSDPW,< -0.25
11,SVVVSASEDLY,< -0.25
12,SVWAKRERARRATYYVVRRI,-0.214
13,SVWRGLSSRRGQCRHLSRIY,< -0.25
14,SVWRRALENCKRVVVQIQQR,< -0.25
15,SVYQQVESPMHGSSVAGRAF,< -0.25
16,SVYRRMGSVRARSEPFLSRT,< -0.25
17,SVYSDWGYGTCL,< -0.25
18,SWACCAQLRAFLVATR,< -0.25
19,SWEDRGERSNTDWVWTTDTM,< -0.25
20,SWFGGPFSRSR,< -0.25
21,SWGGKWMLIVLRWSGNGGVR,< -0.25
22,SWK,< -0.25
23,SWLRKMYLYRLGFRWKEPLA,< -0.25
24,SWPSTAGLIARSSG,< -0.25
25,SWQGLVSPVELKCL,< -0.25

row,Substance,growth estimate
1,SWQRRMDWPDALDRNGGTE,< -0.25
2,SWTLS,< -0.25
3,SWVAQEGRITGVSPHVPHTR,< -0.25
4,SWVGQLNA,< -0.25
5,SWVGRVGNVFYALWPWSRNR,< -0.25
6,SYAHDGSRTPR,< -0.25
7,SYAQTSPHHYSHSMRLARIP,< -0.25
8,SYDRPVPRFRVTAVVTRLPV,< -0.25
9,SYF,< -0.25
10,SYFHCPITRFVRMTLFQFTS,< -0.25
11,SYFIFKLPVCCACCGLWTRF,< -0.25
12,SYG,< -0.25
13,SYGYTSD,< -0.25
14,SYHFKSKACSGVFRIRLGYA,< -0.25
15,SYHFTRGCKSAFPG,< -0.25
16,SYKDVVTRRIVRSTANNALF,< -0.25
17,SYLAALESGN,< -0.25
18,SYLLSADPSKYAS,< -0.25
19,SYLRPT,< -0.25
20,SYMSGTLNYKLRYARVQISV,< -0.25
21,SYPELEFTRGFGAKGQLPTN,< -0.25
22,SYPHLKSSDHLSCAQPL,-0.241
23,SYPQVNVWVIYCTLWAGSIR,< -0.25
24,SYRIVCCTDGIALSVLMTVP,< -0.25
25,SYRLLIALLNTAID,< -0.25

row,Substance,growth estimate
1,SYRMPGECS,< -0.25
2,SYVGHDYNSRTFAERRTVCR,< -0.25
3,SYWTIVLRQFVGTLPQQLLA,< -0.25
4,TAAG,< -0.25
5,TAALHNLFVP,< -0.25
6,TACES,< -0.25
7,TACIWIRRCRGLGVQWISIP,< -0.25
8,TADI,< -0.25
9,TADLQGPPNVRLPESYLTEW,-0.244
10,TAEPVFKQVRRRAHKVCTKP,< -0.25
11,TAFGVCWKGRRTMSSAGGVL,< -0.25
12,TAGAAR,< -0.25
13,TAGCNSPLIPRETDWTLLGK,< -0.25
14,TAGPSQV,< -0.25
15,TAGSQYRRGLGEHLIHRSYD,< -0.25
16,TAIDSRRQVRWGSANGRMSH,< -0.25
17,TAILSPVRNRSLCPLRSLIL,< -0.25
18,TAIRIGVVCCHCS,< -0.25
19,TAKLHAGWSLFTVQVAAAAQ,< -0.25
20,TALPQ,< -0.25
21,TALRYCIGVTRASKLVPGYG,< -0.25
22,TAMRRHLQQL,< -0.25
23,TAPNRVDLNVENAV,< -0.25
24,TAQQAACAKWS,< -0.25
25,TAQSELWKWIHRMFENATAW,< -0.25

# Retrieved one by one from above:
row,Substance,growth estimate
4,TAAG,< -0.25
16,TAIDSRRQVRWGSANGRMSH,< -0.25
11,TAFGVCWKGRRTMSSAGGVL,< -0.25
21,TALRYCIGVTRASKLVPGYG,< -0.25
12,TAGAAR,< -0.25

# Continuation:

row,Substance,growth estimate
1,TARRIRNHGGGRRLGISVPT,< -0.25
2,TASDKLSGFTPAMYSRGGG,< -0.25
3,TASHFET,< -0.25
4,TASPWRGKLNMFVTGSLSFN,< -0.25
5,TASRE,< -0.25
6,TASWR,< -0.25
7,TATFGKGTKS,< -0.25
8,TATLYRFGM,< -0.25
9,TATRGPWSRLEESSGRPLGS,< -0.25
10,TATVRCSREV,< -0.25
11,TAVLLYSVRGFIL,< -0.25
12,TAVVMTNLLFGGNEFSAVTS,< -0.25
13,TAVVQSLIGERLAVLGQSIP,< -0.25
14,TAWSSHMRVRDC,< -0.25
15,TCAPLFWQASQSQLRGEALI,< -0.25
16,TCCSASGLFVVITGSNGPPH,< -0.25
17,TCCSPRHANPGGTLSHRWFI,< -0.25
18,TCDFPAVAEGENPIRGSR,< -0.25
19,TCGWA,< -0.25
20,TCHV,< -0.25
21,TCINALEASWADPAWRRAIK,< -0.25
22,TCIRQSDVISRRRWLPCFYT,< -0.25
23,TCL,< -0.25
24,TCLCISTRRVIEATHHGKKW,< -0.25
25,TCLGSLALRGKLHAWGRPVR,< -0.25

row,Substance,growth estimate
1,TCMHPRR,< -0.25
2,TCMTATLI,< -0.25
3,TCPRSLAS,< -0.25
4,TCSALTHITEFGKC,< -0.25
5,TCSGSLKAGCINPPVNDASV,< -0.25
6,TCST,< -0.25
7,TCTGWITR,< -0.25
8,TCTINFP,< -0.25
9,TCVAA,< -0.25
10,TDAGVDQGSGSARSATWLNR,< -0.25
11,TDCS,< -0.25
12,TDEISSQNQLMRRS,< -0.25
13,TDEKNKCLWSLRRKNYA,< -0.25
14,TDFSNILEPIHAIVVCGSRS,< -0.25
15,TDGGSNV,< -0.25
16,TDGQCDLCFARSEQLPD,< -0.25
17,TDHWASKSSNLTLLVGRTML,< -0.25
18,TDISGSTGR,< -0.25
19,TDLISRLMVCVIH,< -0.25
20,TDLLNG,< -0.25
21,TDLQHRLLQGLLLIYRWVVP,< -0.25
22,TDLRWTCIRRCGQKNPVDCD,< -0.25
23,TDLSMSRPRHSGWLPSWDRS,< -0.25
24,TDLVGTRLVQPLSTQLIQ,< -0.25
25,TDMSWGSFPKSKIVDLWVVG,< -0.25

row,Substance,growth estimate
1,TDREAYTC,< -0.25
2,TDSTAPPPALTLLSASPVQG,< -0.25
3,TDTLRGET,< -0.25
4,TDYKHKLAGASARGSGRPAL,< -0.25
5,TEEVINIMH,< -0.25
6,TEGEAGLD,< -0.25
7,TEGEMVSNVNGISLT,< -0.25
8,TEGVLVTTSAIMHIVATEPV,-0.246
9,TELHFKMEIPRVDLDLR,-0.241
10,TELTASISSGRILQVSGSTW,< -0.25
11,TEMVMNYIVLAQSLFSAFPE,< -0.25
12,TEPFLYIGQDNGHWCAGAAW,< -0.25
13,TERGRS,< -0.25
14,TERSNRRHPPVEEGGLILVV,< -0.25
15,TESAGQITGSNVNGGSLH,< -0.25
16,TESEM,< -0.25
17,TESLDWSSSQTFYARTAPVL,< -0.25
18,TEVAHKSQFDLFGSRGPPLN,< -0.25
19,TEYGPLSSSANKQLPRTPRK,< -0.25
20,TFAFQRKQPNTSIQ,< -0.25
21,TFANLPLYAVTRVRSPL,< -0.25
22,TFEAKEKVQSASYADN,< -0.25
23,TFERGDGGERYCFGSIHISI,< -0.25
24,TFKLLDFTCHRYHAILSRG,< -0.25
25,TFKNPMANRTKGLLVRCTG,< -0.25

# Copied from the list:
# For growth estimate, TFERGDGGERYCFGSIHISI is listed with < -0.25
# For growth estimate, TEGVLVTTSAIMHIVATEPV is listed with -0.246
# For growth estimate, TDREAYTC is listed with < -0.25
# For growth estimate, TEVAHKSQFDLFGSRGPPLN is listed with < -0.25

# (continued)

row,Substance,growth estimate
1,TFRCYNTQDIGSLLVTCLVN,< -0.25
2,TFRTSLSCGDRDKRGRIISI,< -0.25
3,TFTIQDTETEMFGCSVRKPL,< -0.25
4,TFTLVHLHKTFTTVLSVPGG,< -0.25
5,TFVVCRTGWARHVDC,< -0.25
6,TGACMCLLTGLPPTWNVGNR,< -0.25
7,TGALARRFFLGERTWLLAVP,< -0.25
8,TGASQRSVVRPGSRESASRV,< -0.25
9,TGCTGIFSNVQINCTRVFKD,< -0.25
10,TGDRTRSVHRLGAVMILEVP,< -0.25
11,TGDSDPSGEKLTDRGRIALF,< -0.25
12,TGECRRFLMILSDNTVMFSS,< -0.25
13,TGENLETTNMEDLRWCCSDT,< -0.25
14,TGESLSEKMHIISLCNNYAR,< -0.25
15,TGFCSL,-0.145
16,TGFTTHGTTRCAGSMPGITA,< -0.25
17,TGGAGDVGKRLDCCSIIGNS,< -0.25
18,TGGKAKLFRAGSTTSHAANP,< -0.25
19,TGGRGLSGVFGLNPSLRN,< -0.25
20,TGHGY,-0.226
21,TGI,< -0.25
22,TGIIDKGIRICERV,< -0.25
23,TGISGHYKANGAVLDKIRKN,< -0.25
24,TGKF,< -0.25
25,TGKFPKWGLVPRRADSHSSF,< -0.25

# A portion from the list above:
row,Substance,growth estimate
13,TGENLETTNMEDLRWCCSDT,< -0.25
14,TGESLSEKMHIISLCNNYAR,< -0.25

# Additional results:

row,Substance,growth estimate
1,TGKSTLV,< -0.25
2,TGLNP,< -0.25
3,TGLRFDGKS,< -0.25
4,TGLRSALMPAGGTDGSTRTA,< -0.25
5,TGLTPTRRKIPATKLVMKTV,< -0.25
6,TGLWWYLLRRVDCSKLTLPQ,< -0.25
7,TGMKGPRATPTHAPNSLRTR,< -0.25
8,TGMYFSELSCIRRPSVLALK,-0.246
9,TGNFLP,< -0.25
10,TGNVCVIPYIR,< -0.253
11,TGPFKRLRSKSRSQVTAHIC,< -0.25
12,TGPHLYYVSHNIFGELTPSP,< -0.25
13,TGQICGNVAHWGLRSPLGDV,< -0.25
14,TGRARRLRSPCNNSGRGFFY,< -0.25
15,TGRGRSDKVSCHQSNGSPAP,< -0.25
16,TGRLYNLLVLRLP,< -0.25
17,TGRYGGSNVV,< -0.25
18,TGSFY,< -0.25
19,TGSGGLLVR,< -0.25
20,TGSLELVRTRPTTGLTGLSI,< -0.25
21,TGSLWL,< -0.25

# Source: the supplement of paper PMC5949888
